{"source": "paper PMC3084861", "binders": {"B1": {"name": "HA-tagged spAsf1 (protein, UniProt O74515 1-262)", "chain": "MSIVNILSVNVLNNPAKFSDPYKFEITFECLEPLKSDLEWKLTYVGSATSQSYDQILDTLLVGPIPIGINKFVFEADPPNIDLLPQLSDVLGVTVILLSCAYEDNEFVRVGYYVNNEMEGLNLQEMDDAEIKKVKVDISKVWRSILAEKPRVTRFNIQWDNPDFDDAPPVQPDADEEEEEEEADEMEEEFDEEGEGDEEEEEEDDGDGDGEGDGDGEGENDGKGSEEEEEEEIDIEEEEEESALANASAAEEKPEEKPETSQ"}}, "key": {"Hip3-1-flag (S. pombe)": {"molecular_target": "T1, Hip3-1-flag (S. pombe) (UniProt P87315)", "T1 sequence": "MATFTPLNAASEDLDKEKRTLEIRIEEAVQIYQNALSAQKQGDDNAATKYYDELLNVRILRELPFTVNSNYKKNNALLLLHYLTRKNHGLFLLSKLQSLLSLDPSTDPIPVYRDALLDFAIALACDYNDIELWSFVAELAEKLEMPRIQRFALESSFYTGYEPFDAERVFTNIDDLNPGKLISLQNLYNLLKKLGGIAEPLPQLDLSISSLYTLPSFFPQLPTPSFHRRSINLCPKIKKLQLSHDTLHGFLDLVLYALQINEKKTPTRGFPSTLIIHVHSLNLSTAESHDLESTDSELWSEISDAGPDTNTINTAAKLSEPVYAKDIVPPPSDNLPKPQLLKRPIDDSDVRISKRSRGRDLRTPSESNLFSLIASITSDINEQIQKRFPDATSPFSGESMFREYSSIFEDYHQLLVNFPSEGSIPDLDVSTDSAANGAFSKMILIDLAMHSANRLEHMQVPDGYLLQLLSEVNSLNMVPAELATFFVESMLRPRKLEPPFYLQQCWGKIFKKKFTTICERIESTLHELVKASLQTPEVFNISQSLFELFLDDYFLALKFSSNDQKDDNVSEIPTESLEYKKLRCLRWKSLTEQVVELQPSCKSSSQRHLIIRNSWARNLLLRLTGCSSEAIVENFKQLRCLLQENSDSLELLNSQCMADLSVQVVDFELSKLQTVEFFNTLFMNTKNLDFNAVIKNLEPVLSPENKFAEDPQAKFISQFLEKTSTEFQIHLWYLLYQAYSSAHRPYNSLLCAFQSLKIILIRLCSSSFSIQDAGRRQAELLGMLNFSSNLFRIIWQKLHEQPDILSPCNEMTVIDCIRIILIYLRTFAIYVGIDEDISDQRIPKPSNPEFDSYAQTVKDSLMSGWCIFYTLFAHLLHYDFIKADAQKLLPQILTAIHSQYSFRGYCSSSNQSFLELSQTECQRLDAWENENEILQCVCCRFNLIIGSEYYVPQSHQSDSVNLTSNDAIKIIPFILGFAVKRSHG", "experiment": "co-IP; whole-cell extracts of S. pombe strains expressing Hip3-flag or Hip3-1-flag and HA-spAsf1; anti-FLAG M2 agarose, 2 hr at 4°C, Buffer B with 150 mM NaCl, washes with 200 mM NaCl; western blot with anti-HA (3F10)"}, "Hip3-flag (S. pombe)": {"molecular_target": "Hip3-flag (S. pombe) (UniProt P87315)", "experiment": "co-IP; whole-cell extracts of S. pombe strains expressing Hip3-flag or Hip3-1-flag and HA-spAsf1; anti-FLAG M2 agarose, 2 hr at 4°C, Buffer B with 150 mM NaCl, washes with 200 mM NaCl; western blot with anti-HA (3F10)"}}, "note": "Results are given in words; binding and its absence hold for the method and conditions named. Binding seen in cells or lysates may run through a third protein. Some entries that bind do so weakly or less than the wild type. Where a sequence is shown, tags or fusion partners need not be part of it."}
{"binder": "B1", "values": [{"measurement": "binding", "setting": "Hip3-1-flag (S. pombe)", "value": "binds"}, {"measurement": "binding", "setting": "Hip3-flag (S. pombe)", "value": "binds"}]}
